In patent US20110129508A1 (priority 2008, published 2011):
For at least one compound, name, drawing or mass did not settle the structure.

Tested on: rat model of prostate bone cancer pain
Design: species or system Male Wistar rats
Details: in vivo, ip

In the case of `CCOC(=O)Nc1ccc(NCc2ccc(F)cc2)nc1N` [flupirtine], the antinociception is reported as “dose related antinociception”.
